No constants are given. Whether binding was seen depends on the method and setting. Binding seen in cells or lysates may run through a third protein. Some entries that bind do so weakly or less than the wild type. For part of these data: Tags and fused reporters may be left off the sequences shown.
T1: FLAG-RIN2 (UniProt Q8WYP3)
T1 sequence: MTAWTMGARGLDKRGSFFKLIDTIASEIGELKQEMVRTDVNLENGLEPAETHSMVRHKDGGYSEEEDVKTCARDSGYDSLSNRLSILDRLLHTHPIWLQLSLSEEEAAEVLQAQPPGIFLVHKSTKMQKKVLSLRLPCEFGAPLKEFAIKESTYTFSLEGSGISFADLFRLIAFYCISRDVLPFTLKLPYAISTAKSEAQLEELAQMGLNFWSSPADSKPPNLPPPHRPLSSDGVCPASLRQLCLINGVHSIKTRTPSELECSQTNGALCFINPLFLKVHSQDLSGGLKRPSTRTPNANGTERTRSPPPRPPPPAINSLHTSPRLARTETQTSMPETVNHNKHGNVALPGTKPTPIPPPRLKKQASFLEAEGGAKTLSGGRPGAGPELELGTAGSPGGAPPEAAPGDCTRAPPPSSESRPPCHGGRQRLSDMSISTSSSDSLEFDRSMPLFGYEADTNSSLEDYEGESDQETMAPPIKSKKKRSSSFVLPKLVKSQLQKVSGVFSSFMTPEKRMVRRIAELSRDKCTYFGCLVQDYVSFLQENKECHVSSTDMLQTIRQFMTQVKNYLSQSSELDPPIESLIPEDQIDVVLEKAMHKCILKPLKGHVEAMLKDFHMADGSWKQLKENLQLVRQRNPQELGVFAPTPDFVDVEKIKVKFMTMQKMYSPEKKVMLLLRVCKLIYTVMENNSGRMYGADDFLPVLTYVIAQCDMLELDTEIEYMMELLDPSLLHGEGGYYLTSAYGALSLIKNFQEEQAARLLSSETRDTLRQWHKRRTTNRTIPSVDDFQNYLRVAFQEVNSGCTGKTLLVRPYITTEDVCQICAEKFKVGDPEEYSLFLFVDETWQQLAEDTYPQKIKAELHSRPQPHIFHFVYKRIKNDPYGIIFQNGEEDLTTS

T2: FLAG-RIN3 (UniProt Q8TB24)
T2 sequence: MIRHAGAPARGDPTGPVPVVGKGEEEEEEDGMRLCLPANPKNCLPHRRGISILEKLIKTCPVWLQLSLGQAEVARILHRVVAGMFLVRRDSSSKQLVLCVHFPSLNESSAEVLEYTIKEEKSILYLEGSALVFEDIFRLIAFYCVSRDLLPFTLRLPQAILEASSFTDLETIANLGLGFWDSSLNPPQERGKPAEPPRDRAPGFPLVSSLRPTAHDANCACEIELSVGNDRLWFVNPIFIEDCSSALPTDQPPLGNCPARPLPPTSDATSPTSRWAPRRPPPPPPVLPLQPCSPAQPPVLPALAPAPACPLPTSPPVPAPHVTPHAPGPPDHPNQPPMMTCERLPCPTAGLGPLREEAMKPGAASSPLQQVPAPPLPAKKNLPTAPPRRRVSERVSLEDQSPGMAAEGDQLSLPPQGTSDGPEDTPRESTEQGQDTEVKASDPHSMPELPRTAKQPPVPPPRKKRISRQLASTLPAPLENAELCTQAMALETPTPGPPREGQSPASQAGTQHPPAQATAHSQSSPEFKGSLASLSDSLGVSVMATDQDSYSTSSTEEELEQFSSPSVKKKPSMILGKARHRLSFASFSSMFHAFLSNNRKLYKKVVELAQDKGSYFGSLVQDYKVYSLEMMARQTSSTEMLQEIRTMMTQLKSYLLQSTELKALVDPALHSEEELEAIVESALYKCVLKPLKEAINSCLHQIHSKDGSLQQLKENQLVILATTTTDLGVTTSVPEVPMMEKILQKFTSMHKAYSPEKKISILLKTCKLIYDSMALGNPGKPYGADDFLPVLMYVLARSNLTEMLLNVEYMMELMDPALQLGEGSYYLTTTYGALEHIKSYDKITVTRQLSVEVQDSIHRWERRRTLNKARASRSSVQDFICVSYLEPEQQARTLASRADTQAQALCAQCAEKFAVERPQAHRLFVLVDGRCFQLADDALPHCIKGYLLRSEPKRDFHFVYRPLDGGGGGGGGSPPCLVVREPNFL

T3: endogenous odin (HeLa) (human (endogenous in HeLa)) (UniProt Q92625)
T3 sequence: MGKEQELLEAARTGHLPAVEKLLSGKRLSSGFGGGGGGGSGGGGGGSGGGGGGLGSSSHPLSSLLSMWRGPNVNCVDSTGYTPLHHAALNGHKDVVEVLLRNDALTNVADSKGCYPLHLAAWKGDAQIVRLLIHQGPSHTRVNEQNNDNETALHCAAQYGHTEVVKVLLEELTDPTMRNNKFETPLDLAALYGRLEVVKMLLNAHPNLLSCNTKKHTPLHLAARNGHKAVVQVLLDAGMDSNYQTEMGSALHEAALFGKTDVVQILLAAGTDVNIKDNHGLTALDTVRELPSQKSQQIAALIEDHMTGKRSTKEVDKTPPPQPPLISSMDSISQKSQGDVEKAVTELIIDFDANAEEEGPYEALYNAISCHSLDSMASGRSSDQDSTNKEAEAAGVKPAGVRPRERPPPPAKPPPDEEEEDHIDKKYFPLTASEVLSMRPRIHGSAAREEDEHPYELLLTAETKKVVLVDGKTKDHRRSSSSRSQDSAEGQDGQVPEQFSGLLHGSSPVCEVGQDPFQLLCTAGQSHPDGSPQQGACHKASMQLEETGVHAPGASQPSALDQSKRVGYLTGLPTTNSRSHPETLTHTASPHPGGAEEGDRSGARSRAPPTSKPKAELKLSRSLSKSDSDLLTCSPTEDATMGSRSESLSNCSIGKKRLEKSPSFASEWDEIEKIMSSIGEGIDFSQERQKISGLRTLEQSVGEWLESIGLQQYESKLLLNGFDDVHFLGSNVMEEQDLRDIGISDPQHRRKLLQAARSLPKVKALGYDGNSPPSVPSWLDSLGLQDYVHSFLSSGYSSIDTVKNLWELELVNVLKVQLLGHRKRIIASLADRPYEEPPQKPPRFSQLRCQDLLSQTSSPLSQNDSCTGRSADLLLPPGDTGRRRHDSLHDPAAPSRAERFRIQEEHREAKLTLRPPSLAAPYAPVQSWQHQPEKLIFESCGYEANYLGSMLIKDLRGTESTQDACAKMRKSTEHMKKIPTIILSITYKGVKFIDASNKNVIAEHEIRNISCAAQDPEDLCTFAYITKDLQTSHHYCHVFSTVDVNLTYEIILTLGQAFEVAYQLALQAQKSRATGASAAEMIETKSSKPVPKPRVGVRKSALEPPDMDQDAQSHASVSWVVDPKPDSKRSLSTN


What was measured:
[1] = biological target: T1, FLAG-RIN2; test: co-IP; HEK293T co-transfected with FLAG-RIN1, RIN2, RIN3 or RINL and myc-amphiphysin II; lysates immunoprecipitated with anti-FLAG, blotted with anti-myc and anti-FLAG
[2] = biological target: T2, FLAG-RIN3; test: as above
[3] = biological target: T3, endogenous odin (HeLa) (human (endogenous in HeLa)); test: co-IP; HeLa cell lysates immunoprecipitated with anti-odin antibody or normal rat IgG; endogenous proteins

binding [1]	binding [2]	binding [3]	Binder
binds	binds		myc-amphiphysin II (protein, UniProt O00499 1-593) MAEMGSKGVTAGKIASNVQKKLTRAQEKVLQKLGKADETKDEQFEQCVQNFNKQLTEGTRLQKDLRTYLASVKAMHEASKKLNECLQEVYEPDWPGRDEANKIAENNDLLWMDYHQKLVDQALLTMDTYLGQFPDIKSRIAKRGRKLVDYDSARHHYESLQTAKKKDEAKIAKPVSLLEKAAPQWCQGKLQAHLVAQTNLLRNQAEEELIKAQKVFEEMNVDLQEELPSLWNSRVGFYVNTFQSIAGLEENFHKEMSKLNQNLNDVLVGLEKQHGSNTFTVKAQPSDNAPAKGNKSPSPPDGSPAATPEIRVNHEPEPAGGATPGATLPKSPSQLRKGPPVPPPPKHTPSKEVKQEQILSLFEDTFVPEISVTTPSQFEAPGPFSEQASLLDLDFDPLPPVTSPVKAPTPSGQSIPWDLWEPTESPAGSLPSGEPSAAEGTFAVSWPSQTAEPGPAQPAEASEVAGGTQPAAGAQEPGETAASEAASSSLPAVVVETFPATVNGTVEGGSGAGRLDLPPGFMFKVQAQHDYTATDTDELQLKAGDVVLVIPFQNPEEQDEGWLMGVKESDWNQHKELEKCRGVFPENFTERVP
		binds	endogenous RINL (HeLa) (protein, UniProt Q6ZS11 1-566) MAQPEDKAPEVPTEGVRLVPPQVNKADRTPLGVLSTLEPLTRLQRTWGVWHVPELDTQDAEALVGLWPLGSFLVTGRDPSQALVLRSGPLPGEVNTYQIQKIPRGVSLESSNLCMPDLPHLLAFLSASRDVLPRTLLLPPPTLGPRDEHTDPVQIGRVQQDTPGKVLSIVNQLYLETHRGWGREQTPQETEPEAAQRHDPAPRNPAPHGVSWVKGPLSPEVDHPGPALASLLEEEEEDLEGKEEGREDDPEEEGPEDVLTIHVQSLVRARSSYVARQYRSLRVRIASDSGGPHGSGDPATELLQDVRHLLTDLQDHLAKDSYIRAVFGSRGPGLPKKDEDPGPALETAVCQAVLAPLKPALWTRLRTLRAPELRRLRRRQTALRAGAGPPGAQGPGPEGQSPAPALRSRIHERLAHLHAACAPRRKVALLLEVCRDVYAGLARGENQDPLGADAFLPALTEELIWSPDIGDTQLDVEFLMELLDPDELRGEAGYYLTTWFGALHHIAHYQPETDRAPRGLSSEARASLHQWHRRRTLHRKDHPRAQANLPFKEPWAEETVTGTSDN

— PMC3264577, “RINL, Guanine Nucleotide Exchange Factor Rab5-Subfamily, Is Involved in the EphA8-Degradation Pathway with Odin” (PLoS ONE, 2012)
